Data source: PubChem BioAssay AID1259425 (University of Nebraska Medical Center, 2018)

Aim: 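Find knockdowns that reproduce the gene expression pattern seen when KSR1 is lost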 (primary screen)
Cell system: HCT116 human colon cancer cells
Knock-down reagent: siRNA pool against human genes, 50 nM siRNA
Measured: 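mRNA of six signature genes measured together by branched-DNA assay after 50 nM siRNA pool, blank removed, divided by geometric mean of two housekeeping genes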
Scale: BNIP3L mRNA: higher = more BNIP3L transcript after knockdown; NDRG1 mRNA: higher = more NDRG1 transcript after knockdown
Here is one part, drawn at random, of about 14,000 reagents. Not all columns of the deposit are shown. Not given: the time to read-out.

For HTR5A (5-hydroxytryptamine receptor 5A), what does the deposit list?
BNIP3L mRNA, set 1: 0.253; NDRG1 mRNA, set 1: 0.11

What is on record for AKIP1 (A-kinase interacting protein 1)?
BNIP3L mRNA, set 1: 0.149; NDRG1 mRNA, set 1: 0.33

What did the screen give for GCH1 (GTP cyclohydrolase 1)?
BNIP3L mRNA, set 1: 0.152; NDRG1 mRNA, set 1: 0.161

For CLSTN1 (calsyntenin 1), what does the deposit list?
BNIP3L mRNA, set 1: 0.0639; NDRG1 mRNA, set 1: 0.369

What did the screen give for CD72 (CD72 molecule)?
BNIP3L mRNA, set 1: 0.0628; NDRG1 mRNA, set 1: 0.168

Which result is listed for RPL31 (ribosomal protein L31)?
BNIP3L mRNA, set 1: 0.541; NDRG1 mRNA, set 1: 0.855

Which result is listed for MED17 (mediator complex subunit 17)?
BNIP3L mRNA, set 1: 0.168; NDRG1 mRNA, set 1: 0.319

How did the screen score LTB4R (leukotriene B4 receptor)?
BNIP3L mRNA, set 1: 0.148; NDRG1 mRNA, set 1: 0.152

What is on record for PAN2 (poly(A) specific ribonuclease subunit PAN2)?
BNIP3L mRNA, set 1: 0.0831; NDRG1 mRNA, set 1: 0.191

With VCX2 (variable charge X-linked 2), how do the results read?
BNIP3L mRNA, set 1: 0.0583; NDRG1 mRNA, set 1: 0.176

With COMMD10 (COMM domain containing 10), what does the deposit list?
BNIP3L mRNA, set 1: 0.12; NDRG1 mRNA, set 1: 0.321

Which result is listed for UNC119 (unc-119 lipid binding chaperone)?
BNIP3L mRNA, set 1: 0.0918; NDRG1 mRNA, set 1: 0.238

Which result is listed for FBLN5 (fibulin 5)?
BNIP3L mRNA, set 1: 0.0643; NDRG1 mRNA, set 1: 0.198

What is on record for SLC25A13?
BNIP3L mRNA, set 1: 0.175; NDRG1 mRNA, set 1: 0.304

Which result is listed for MAGEA6 (MAGE family member A6)?
BNIP3L mRNA, set 1: 0.0454; NDRG1 mRNA, set 1: 0.0609

With IFIH1 (interferon induced with helicase C domain 1), what does the deposit list?
BNIP3L mRNA, set 1: 0.0801; NDRG1 mRNA, set 1: 0.154

For PFN1 (profilin 1), what was measured?
BNIP3L mRNA, set 1: 0.0768; NDRG1 mRNA, set 1: 0.166

What did the screen give for TAS2R46 (taste 2 receptor member 46)?
BNIP3L mRNA, set 1: 0.164; NDRG1 mRNA, set 1: 0.103

For CLCN4 (Cl-/H+ antiporter 4), how do the results read?
BNIP3L mRNA, set 1: 0.0546; NDRG1 mRNA, set 1: 1.05

For ZNF609 (zinc finger protein 609), how do the results read?
BNIP3L mRNA, set 1: 0.075; NDRG1 mRNA, set 1: 0.111

With MTUS2 (microtubule associated scaffold protein 2), what does the deposit list?
BNIP3L mRNA, set 1: 0.103; NDRG1 mRNA, set 1: 0.138

With TMEM51 (transmembrane protein 51), what was measured?
BNIP3L mRNA, set 1: 0.0605; NDRG1 mRNA, set 1: 0.217

With LRRC4 (leucine rich repeat containing 4), what does the deposit list?
BNIP3L mRNA, set 1: 0.114; NDRG1 mRNA, set 1: 0.698

For GAST (gastrin), what does the deposit list?
BNIP3L mRNA, set 1: 0.0744; NDRG1 mRNA, set 1: 0.123

What is on record for MPP3 (MAGUK p55 scaffold protein 3)?
BNIP3L mRNA, set 1: 0.0408; NDRG1 mRNA, set 1: 0.169

Which result is listed for CRISPLD2 (cysteine rich secretory protein LCCL domain containing 2)?
BNIP3L mRNA, set 1: 0.151; NDRG1 mRNA, set 1: 0.389

What is on record for PCDHGB1 (protocadherin gamma subfamily B, 1)?
BNIP3L mRNA, set 1: 0.0803; NDRG1 mRNA, set 1: 0.457

How did the screen score MMAB (metabolism of cobalamin associated B)?
BNIP3L mRNA, set 1: 0.152; NDRG1 mRNA, set 1: 0.189

How did the screen score ELOA2 (elongin A2)?
BNIP3L mRNA, set 1: 0.0955; NDRG1 mRNA, set 1: 0.214

With SST (somatostatin), what was measured?
BNIP3L mRNA, set 1: 0.366; NDRG1 mRNA, set 1: 0.664

What is on record for FLNA (filamin A)?
BNIP3L mRNA, set 1: 0.181; NDRG1 mRNA, set 1: 0.241

Which result is listed for TRMT5 (tRNA methyltransferase 5)?
BNIP3L mRNA, set 1: 0.114; NDRG1 mRNA, set 1: 0.119

With LIG1 (DNA ligase 1), what does the deposit list?
BNIP3L mRNA, set 1: 0.0806; NDRG1 mRNA, set 1: 0.149

What is on record for SALL1 (spalt like transcription factor 1)?
BNIP3L mRNA, set 1: 0.218; NDRG1 mRNA, set 1: 1.42

What did the screen give for IREB2 (iron responsive element binding protein 2)?
BNIP3L mRNA, set 1: 0.0571; NDRG1 mRNA, set 1: 0.0764

What is on record for DEAF1 (DEAF1 transcription factor)?
BNIP3L mRNA, set 1: 0.149; NDRG1 mRNA, set 1: 0.358

2 entries from above, sorted by “NDRG1 mRNA, set 1”, lowest first.
TAS2R46 (taste 2 receptor member 46) → BNIP3L mRNA, set 1: 0.164; NDRG1 mRNA, set 1: 0.103
PFN1 (profilin 1) → BNIP3L mRNA, set 1: 0.0768; NDRG1 mRNA, set 1: 0.166
